No constants are given. Whether binding was seen depends on the method and setting. Some binding calls cover weakened binding; strength is not graded here.

In the experiment the target is T1, human alpha-N-acetylgalactosaminidase (nagalase) (human) (UniProt P17050).
T1 sequence: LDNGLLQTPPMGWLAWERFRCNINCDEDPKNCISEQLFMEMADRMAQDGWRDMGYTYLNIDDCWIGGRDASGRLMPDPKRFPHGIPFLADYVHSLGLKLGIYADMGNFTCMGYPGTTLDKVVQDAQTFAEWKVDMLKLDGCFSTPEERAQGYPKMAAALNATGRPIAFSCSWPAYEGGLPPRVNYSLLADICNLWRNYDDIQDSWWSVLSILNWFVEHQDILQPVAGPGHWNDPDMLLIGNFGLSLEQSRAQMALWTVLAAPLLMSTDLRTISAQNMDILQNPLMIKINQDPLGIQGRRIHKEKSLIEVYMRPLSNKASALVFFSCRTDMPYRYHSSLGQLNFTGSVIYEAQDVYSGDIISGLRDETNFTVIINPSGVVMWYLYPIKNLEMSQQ
As to the kind of experiment: ELISA.

B1: vitamin D-binding protein-derived macrophage activating factor (DBP-MAF), purified (protein, UniProt P02774 17-474)
chain: LERGRDYEKNKVCKEFSHLGKEDFTSLSLVLYSRKFPSGTFEQVSQLVKEVVSLTEACCAEGADPDCYDTRTSALSAKSCESNSPFPVHPGTAECCTKEGLERKLCMAALKHQPQEFPTYVEPTNDEICEAFRKDPKEYANQFMWEYSTNYGQAPLSLLVSYTKSYLSMVGSCCTSASPTVCFLKERLQLKHLSLLTTLSNRVCSQYAAYGEKKSRLSNLIKLAQKVPTADLEDVLPLAEDITNILSKCCESASEDCMAKELPEHTVKLCDNLSTKNSKFEDCCQEKTAMDVFVCTYFMPAAQLPELPDVELPTNKDVCDPGNTKVMDKYTFELSRRTHLPEVFLSKVLEPTLKSLGECCDVEDSTTCFNAKGPLLKKELSSFIDKGQELCADYSENTFTEYKKKLAERLKAKLPDATPTELAKLVNKHSDFASNCCSINSPPLYCDSEIDAELKNIL
Consider B1, for which the binding entry is recorded as “binds”.
